Laboratory results published in US20240199600A1, “CONDENSED HETEROCYCLIC COMPOUND HAVING A SULFONAMIDE GROUP OR SALT THEREOF, AGRICULTURAL OR HORTICULTURAL INSECTICIDE OR ANIMAL ECTOPARASITE OR ENDOPARASITE CONTROL AGENT COMPRISING THE COMPOUND OR THE SALT THEREOF, AND METHOD FOR USING THE COMPOUND OR THE SALT THEREOF, THE INSECTICIDE, OR THE …” (NIHON NOHYAKU CO., LTD., priority 2021, published 2024).
Some results were stated once for a whole list of compounds, not compound by compound. At least one structure is not confirmed: it was looked up by name or label, or the drawing left a doubt.

Columns and labels:
Plutella xylostella = settings: 500 ppm, seedlings with laid eggs dipped about 30 seconds, 25° C., 6 days after dip treatment
Description: Insecticidal test on Plutella xylostella
Adults of P. xylostella were released onto Chinese cabbage seedlings and allowed to lay eggs thereon. […] After air-dried, the seedlings were kept in a thermostatic chamber at 25° C. […] This test was conducted in triplicate using 10 adults of P. xviostella per plot.
Corrected mortality rate (%)100×(Number of hatched larvae in a non-treatment plot-Number of hatched larvae in a treatment plot)/Number of hatched larvae in a non-treatment plot [Math. 3]

Laodelphax striatelius = settings: 500 ppm, rice seedlings dipped 30 seconds, 3rd-instar larvae, 8 days after inoculation
Myzus persicae = assay: Test for control efficacy on Myzus persicae (foliar application, potted Chinese cabbage); type: in vivo; settings: 500 ppm, foliar application to Chinese cabbage plants, 6 days after application

SMILES | insecticidal efficacy (corrected mortality rate), activity level (Plutella xylostella) | insecticidal efficacy (corrected mortality rate), activity level (Laodelphax striatelius) | control efficacy (control rate), activity level (Myzus persicae)
CN(C)S(=O)(=O)c1cc(-c2ccc(F)cc2)cnc1C1Nc2cc(C(F)(F)F)cnc2O1 (stereo not drawn) [Compound 8-4] | A (the corrected mortality rate is 100%) | A (the corrected mortality rate is 100%) | A (the control rate is 100%)
COC(=O)c1cnc(-c2nc3cc(C(F)(F)F)cnc3n2C)c(S(=O)(=O)N(C)C)c1 [Compound 1-14] | A (the corrected mortality rate is 100%) | A (the corrected mortality rate is 100%) | A (the control rate is 100%)
CNS(=O)(=O)c1cc(C2CC2)cnc1-c1nc2ccc(C(F)(F)F)cn2n1 [Compound 5-15] | A (the corrected mortality rate is 100%) | A (the corrected mortality rate is 100%) | A (the control rate is 100%)
CN(C)S(=O)(=O)c1cc(-c2ccc(F)cc2)cnc1-c1nc2cc(S(=O)(=O)C(F)(F)F)ccc2n1C [Compound 3-5] | A (the corrected mortality rate is 100%) | A (the corrected mortality rate is 100%) | A (the control rate is 100%)
CN(C)C(=O)c1cnc(-c2nc3cc(C(F)(F)C(F)(F)F)nnc3n2C)c(S(=O)(=O)N(C)C)c1 [Compound 2-15] | A (the corrected mortality rate is 100%) | A (the corrected mortality rate is 100%) | A (the control rate is 100%)
CN(C)S(=O)(=O)c1cc(C2CC2)cnc1-c1nc2ccc(C(F)(F)F)cn2n1 [Compound 5-16] | A (the corrected mortality rate is 100%) | A (the corrected mortality rate is 100%) | A (the control rate is 100%)
CN(C)S(=O)(=O)c1cc(OCC(F)(F)F)cnc1-c1nc2cc(C(F)(F)F)cnc2n1C [Compound 1-21] | A (the corrected mortality rate is 100%) | A (the corrected mortality rate is 100%) | A (the control rate is 100%)
CNS(=O)(=O)c1cc(-c2cccc(C(F)(F)F)c2)cnc1-c1nc2cc(C(F)(F)C(F)(F)F)nnc2n1C [Compound 2-8] | A (the corrected mortality rate is 100%) | A (the corrected mortality rate is 100%) | A (the control rate is 100%)
CN(C)S(=O)(=O)c1cc(-c2cncc(C(F)(F)F)c2)cnc1-c1nc2cc(C(F)(F)F)cnc2n1C [Compound 1-75] | A (the corrected mortality rate is 100%) | A (the corrected mortality rate is 100%) | A (the control rate is 100%)
Cc1ncc(-c2cnc(-c3nc4cc(C(F)(F)F)cnc4n3C)c(S(=O)(=O)N(C)C)c2)cn1 [Compound 1-74] | A (the corrected mortality rate is 100%) | A (the corrected mortality rate is 100%) | A (the control rate is 100%)
COC(=O)c1ccc(-c2cnc(-c3nc4cc(C(F)(F)F)cnc4n3C)c(S(=O)(=O)N(C)C)c2)cc1 [Compound 1-42] | A (the corrected mortality rate is 100%) | A (the corrected mortality rate is 100%) | A (the control rate is 100%)
Cn1c(-c2ncc(-c3cccc(C(F)(F)F)c3)cc2S(=O)(=O)N2CCC2)nc2cc(C(F)(F)F)cnc21 [Compound 1-13] | A (the corrected mortality rate is 100%) | A (the corrected mortality rate is 100%) | A (the control rate is 100%)
CN(C)S(=O)(=O)c1cc(-c2ccc([Si](C)(C)C)cc2)cnc1-c1nc2cc(C(F)(F)F)cnc2n1C [Compound 1-37] | A (the corrected mortality rate is 100%) | A (the corrected mortality rate is 100%) | A (the control rate is 100%)
CN(C)S(=O)(=O)c1cc(-c2ccc(F)cc2)cnc1-c1nc2cc(C(F)(F)C(F)(F)F)nnc2n1C [Compound 2-6] | A (the corrected mortality rate is 100%) | A (the corrected mortality rate is 100%) | A (the control rate is 100%)
CN(C)S(=O)(=O)c1cc(-c2ncccn2)cnc1-c1nc2cc(C(F)(F)F)cnc2n1C [Compound 1-48] | A (the corrected mortality rate is 100%) | A (the corrected mortality rate is 100%) | A (the control rate is 100%)
C#CCN(C(=O)OC(C)(C)C)c1cnc(-c2nc3ccc(C(F)(F)F)cn3n2)c(S(=O)(=O)N(C)C)c1 [Compound 5-20] | A (the corrected mortality rate is 100%) | A (the corrected mortality rate is 100%) | A (the control rate is 100%)
CN(C)S(=O)(=O)c1cc(-c2cccc(C(F)(F)F)c2)cnc1-c1nc2ccc(C(F)(F)F)cn2n1 [Compound 5-8] | A (the corrected mortality rate is 100%) | A (the corrected mortality rate is 100%) | A (the control rate is 100%)
CN(C)S(=O)(=O)c1cc(C2CC2)cnc1-c1nc2cc(OC(F)(F)F)ccc2n1C [Compound 3-3] | A (the corrected mortality rate is 100%) | A (the corrected mortality rate is 100%) | A (the control rate is 100%)
CN(C)S(=O)(=O)c1cc(-c2cnn(C)c2)cnc1-c1nc2cc(C(F)(F)F)cnc2n1C [Compound 1-68] | A (the corrected mortality rate is 100%) | A (the corrected mortality rate is 100%) | A (the control rate is 100%)
CN(C)S(=O)(=O)c1cc(-c2ccc(F)c(C#N)c2)cnc1-c1nc2cc(C(F)(F)F)cnc2n1C [Compound 1-38] | A (the corrected mortality rate is 100%) | A (the corrected mortality rate is 100%) | A (the control rate is 100%)
CN(C)S(=O)(=O)c1cc(C(F)(F)F)cnc1-c1nc2cc(C(F)(F)F)nnc2n1C [Compound 2-2] | A (the corrected mortality rate is 100%) | A (the corrected mortality rate is 100%) | A (the control rate is 100%)
CNS(=O)(=O)c1cc(-c2ccc(F)cc2)cnc1C1Nc2cc(C(F)(F)F)cnc2O1 (stereo not drawn) [Compound 8-3] | A (the corrected mortality rate is 100%) | A (the corrected mortality rate is 100%) | A (the control rate is 100%)
COCCNc1cnc(-c2nc3cc(C(F)(F)F)cnc3n2C)c(S(=O)(=O)N(C)C)c1 [Compound 1-32] | A (the corrected mortality rate is 100%) | A (the corrected mortality rate is 100%) | A (the control rate is 100%)
Cc1ccc(-c2cnc(-c3nc4cc(C(F)(F)F)cnc4n3C)c(S(=O)(=O)N(C)C)c2)cn1 [Compound 1-71] | A (the corrected mortality rate is 100%) | A (the corrected mortality rate is 100%) | A (the control rate is 100%)
Cc1nnc(-c2cnc(-c3nc4cc(C(F)(F)F)cnc4n3C)c(S(=O)(=O)N(C)C)c2)s1 [Compound 1-62] | A (the corrected mortality rate is 100%) | A (the corrected mortality rate is 100%) | A (the control rate is 100%)
Cn1c(-c2ncc(C3CC3)cc2S(=O)(=O)N2CCCC2)nc2cc(C(F)(F)F)cnc21 [Compound 1-5] | A (the corrected mortality rate is 100%) | A (the corrected mortality rate is 100%) | A (the control rate is 100%)
CN(C)S(=O)(=O)c1cc(-c2ccc(F)cc2)cnc1-c1nc2cc(C(F)(F)F)cnc2n1C [Compound 1-9] | A (the corrected mortality rate is 100%) | A (the corrected mortality rate is 100%) | A (the control rate is 100%)
CN(C)C(=O)Nc1cnc(-c2nc3cc(C(F)(F)F)cnc3n2C)c(S(=O)(=O)N(C)C)c1 [Compound 1-29] | A (the corrected mortality rate is 100%) | A (the corrected mortality rate is 100%) | A (the control rate is 100%)
